Assay results from the supplement of paper PMC10849652.
This is one part of the list. Residues, ends and D or L forms follow the SMILES beside them. *: point of attachment. Cbz = O=C(OCc1ccccc1)*

Sequences of proteins named here, by UniProt entry; tags and fusion partners are left off. A change or cut given only in a name is not applied to a line headed by its entry.
UniProt P00480: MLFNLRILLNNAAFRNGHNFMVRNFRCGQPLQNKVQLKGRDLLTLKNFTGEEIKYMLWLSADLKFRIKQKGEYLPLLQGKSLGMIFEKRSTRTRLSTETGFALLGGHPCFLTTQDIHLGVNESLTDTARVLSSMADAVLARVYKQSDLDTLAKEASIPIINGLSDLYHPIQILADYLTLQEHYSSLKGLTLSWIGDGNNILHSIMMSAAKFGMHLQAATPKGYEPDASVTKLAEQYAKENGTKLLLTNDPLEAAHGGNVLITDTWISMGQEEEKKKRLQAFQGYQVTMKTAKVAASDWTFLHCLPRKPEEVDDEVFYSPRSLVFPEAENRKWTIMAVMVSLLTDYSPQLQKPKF
UniProt P55809: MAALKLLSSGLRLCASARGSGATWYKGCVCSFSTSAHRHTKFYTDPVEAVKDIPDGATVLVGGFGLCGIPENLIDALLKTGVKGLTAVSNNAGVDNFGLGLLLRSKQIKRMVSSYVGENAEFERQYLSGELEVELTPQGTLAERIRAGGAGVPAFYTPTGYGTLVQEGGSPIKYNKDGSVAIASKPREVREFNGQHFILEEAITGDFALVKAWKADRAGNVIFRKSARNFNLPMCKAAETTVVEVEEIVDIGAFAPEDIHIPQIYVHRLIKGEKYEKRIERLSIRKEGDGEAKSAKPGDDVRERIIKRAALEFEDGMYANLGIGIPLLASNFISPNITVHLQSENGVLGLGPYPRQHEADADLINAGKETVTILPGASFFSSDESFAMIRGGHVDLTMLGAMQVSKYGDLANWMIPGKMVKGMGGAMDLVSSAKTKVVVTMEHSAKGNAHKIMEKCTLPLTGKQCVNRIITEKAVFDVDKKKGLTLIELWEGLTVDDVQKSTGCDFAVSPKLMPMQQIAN
UniProt Q9BW91: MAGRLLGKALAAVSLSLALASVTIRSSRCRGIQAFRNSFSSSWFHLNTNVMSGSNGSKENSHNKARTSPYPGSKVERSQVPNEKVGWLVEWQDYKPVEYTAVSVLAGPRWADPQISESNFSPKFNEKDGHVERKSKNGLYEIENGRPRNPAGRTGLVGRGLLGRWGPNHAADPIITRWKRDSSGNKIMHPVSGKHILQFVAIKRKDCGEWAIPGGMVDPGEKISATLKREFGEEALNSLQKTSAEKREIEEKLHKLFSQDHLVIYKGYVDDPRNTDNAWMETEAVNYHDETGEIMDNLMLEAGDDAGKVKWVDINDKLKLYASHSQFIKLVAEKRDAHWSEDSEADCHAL
UniProt Q96E52: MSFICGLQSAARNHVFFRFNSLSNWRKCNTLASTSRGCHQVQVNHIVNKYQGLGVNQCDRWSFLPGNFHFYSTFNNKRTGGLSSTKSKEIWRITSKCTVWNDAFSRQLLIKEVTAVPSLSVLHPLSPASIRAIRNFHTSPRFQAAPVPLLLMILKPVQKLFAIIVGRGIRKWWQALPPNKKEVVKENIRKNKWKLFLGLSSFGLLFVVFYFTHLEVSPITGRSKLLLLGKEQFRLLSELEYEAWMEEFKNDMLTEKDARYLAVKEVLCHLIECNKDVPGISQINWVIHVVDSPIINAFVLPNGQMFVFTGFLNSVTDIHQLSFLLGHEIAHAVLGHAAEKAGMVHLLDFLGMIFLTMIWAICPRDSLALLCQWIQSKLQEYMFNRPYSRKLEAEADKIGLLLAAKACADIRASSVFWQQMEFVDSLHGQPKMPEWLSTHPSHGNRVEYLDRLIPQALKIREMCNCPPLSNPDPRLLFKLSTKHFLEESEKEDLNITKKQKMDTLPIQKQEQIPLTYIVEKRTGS
UniProt P49902: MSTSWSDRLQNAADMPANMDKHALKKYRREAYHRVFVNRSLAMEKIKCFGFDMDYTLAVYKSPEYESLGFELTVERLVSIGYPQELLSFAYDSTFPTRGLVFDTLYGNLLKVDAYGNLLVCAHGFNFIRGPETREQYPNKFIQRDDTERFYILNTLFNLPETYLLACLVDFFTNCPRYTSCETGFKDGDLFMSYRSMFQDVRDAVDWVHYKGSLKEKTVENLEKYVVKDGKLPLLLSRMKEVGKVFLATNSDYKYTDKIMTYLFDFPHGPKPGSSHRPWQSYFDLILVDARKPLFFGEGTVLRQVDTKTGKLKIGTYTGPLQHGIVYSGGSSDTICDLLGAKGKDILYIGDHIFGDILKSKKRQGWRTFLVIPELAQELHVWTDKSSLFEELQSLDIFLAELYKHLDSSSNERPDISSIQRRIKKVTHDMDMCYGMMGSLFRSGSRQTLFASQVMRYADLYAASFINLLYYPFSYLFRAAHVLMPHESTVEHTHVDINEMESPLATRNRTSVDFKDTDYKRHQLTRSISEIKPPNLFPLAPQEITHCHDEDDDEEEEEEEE
UniProt Q5SRE5: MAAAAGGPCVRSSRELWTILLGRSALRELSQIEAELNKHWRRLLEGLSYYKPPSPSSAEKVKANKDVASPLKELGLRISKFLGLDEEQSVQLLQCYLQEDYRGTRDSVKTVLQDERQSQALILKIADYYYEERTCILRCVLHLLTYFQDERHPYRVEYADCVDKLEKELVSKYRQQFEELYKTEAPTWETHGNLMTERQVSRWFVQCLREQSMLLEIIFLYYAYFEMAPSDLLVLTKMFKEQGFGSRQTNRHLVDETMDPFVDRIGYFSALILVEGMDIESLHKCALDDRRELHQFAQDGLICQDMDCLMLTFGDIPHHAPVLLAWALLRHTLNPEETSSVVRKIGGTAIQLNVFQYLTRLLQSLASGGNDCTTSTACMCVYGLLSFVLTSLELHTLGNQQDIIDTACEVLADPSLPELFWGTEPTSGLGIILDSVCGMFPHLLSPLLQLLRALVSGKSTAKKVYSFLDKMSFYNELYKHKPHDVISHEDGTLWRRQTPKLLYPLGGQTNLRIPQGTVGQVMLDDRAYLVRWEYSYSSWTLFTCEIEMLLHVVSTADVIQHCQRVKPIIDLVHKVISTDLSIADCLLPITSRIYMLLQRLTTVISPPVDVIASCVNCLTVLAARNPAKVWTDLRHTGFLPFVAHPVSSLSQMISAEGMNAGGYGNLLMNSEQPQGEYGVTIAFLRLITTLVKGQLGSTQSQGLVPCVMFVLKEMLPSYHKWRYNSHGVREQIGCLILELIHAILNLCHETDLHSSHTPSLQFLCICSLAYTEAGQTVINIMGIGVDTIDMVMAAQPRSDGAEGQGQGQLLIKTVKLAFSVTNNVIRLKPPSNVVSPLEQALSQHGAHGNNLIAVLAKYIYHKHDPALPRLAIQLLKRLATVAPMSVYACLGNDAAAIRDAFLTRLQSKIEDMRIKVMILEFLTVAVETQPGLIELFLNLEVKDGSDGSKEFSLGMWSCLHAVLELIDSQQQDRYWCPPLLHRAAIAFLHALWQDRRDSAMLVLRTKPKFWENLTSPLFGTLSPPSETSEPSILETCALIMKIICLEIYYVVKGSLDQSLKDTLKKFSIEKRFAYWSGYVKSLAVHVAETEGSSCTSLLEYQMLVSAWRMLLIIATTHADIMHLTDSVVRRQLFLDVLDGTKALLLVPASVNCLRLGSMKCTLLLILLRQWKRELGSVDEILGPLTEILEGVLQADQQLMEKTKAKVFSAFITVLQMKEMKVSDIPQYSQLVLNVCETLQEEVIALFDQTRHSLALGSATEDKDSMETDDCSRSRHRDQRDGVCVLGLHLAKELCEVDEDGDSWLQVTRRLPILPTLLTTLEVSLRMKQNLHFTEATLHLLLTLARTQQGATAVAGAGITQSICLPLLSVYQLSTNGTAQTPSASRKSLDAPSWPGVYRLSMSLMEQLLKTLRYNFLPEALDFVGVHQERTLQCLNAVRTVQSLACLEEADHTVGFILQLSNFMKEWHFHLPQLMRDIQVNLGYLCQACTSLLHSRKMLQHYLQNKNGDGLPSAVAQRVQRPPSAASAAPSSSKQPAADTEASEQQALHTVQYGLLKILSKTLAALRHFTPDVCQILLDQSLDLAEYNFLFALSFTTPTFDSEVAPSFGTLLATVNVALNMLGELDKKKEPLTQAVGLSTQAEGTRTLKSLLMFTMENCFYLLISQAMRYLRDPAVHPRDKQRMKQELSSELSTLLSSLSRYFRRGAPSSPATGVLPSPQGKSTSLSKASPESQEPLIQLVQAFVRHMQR
UniProt Q9BQG2: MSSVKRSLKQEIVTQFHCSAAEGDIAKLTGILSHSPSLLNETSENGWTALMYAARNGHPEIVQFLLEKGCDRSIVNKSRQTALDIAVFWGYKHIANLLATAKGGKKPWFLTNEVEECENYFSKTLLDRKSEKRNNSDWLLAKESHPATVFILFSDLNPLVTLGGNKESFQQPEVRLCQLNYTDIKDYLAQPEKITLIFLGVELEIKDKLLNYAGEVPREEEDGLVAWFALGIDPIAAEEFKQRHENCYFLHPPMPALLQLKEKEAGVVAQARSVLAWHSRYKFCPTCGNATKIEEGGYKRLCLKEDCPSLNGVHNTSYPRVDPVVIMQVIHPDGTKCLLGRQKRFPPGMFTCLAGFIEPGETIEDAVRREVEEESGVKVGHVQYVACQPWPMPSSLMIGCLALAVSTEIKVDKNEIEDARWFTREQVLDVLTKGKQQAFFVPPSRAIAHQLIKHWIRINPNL
UniProt P53384: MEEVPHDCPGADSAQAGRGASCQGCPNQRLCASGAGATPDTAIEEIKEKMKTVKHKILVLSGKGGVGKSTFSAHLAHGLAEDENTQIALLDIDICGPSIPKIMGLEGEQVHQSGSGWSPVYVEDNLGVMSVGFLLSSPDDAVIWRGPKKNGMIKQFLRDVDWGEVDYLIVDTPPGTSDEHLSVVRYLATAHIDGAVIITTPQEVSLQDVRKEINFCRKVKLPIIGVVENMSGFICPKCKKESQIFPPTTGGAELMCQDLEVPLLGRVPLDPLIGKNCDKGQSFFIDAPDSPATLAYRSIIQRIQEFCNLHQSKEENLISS
UniProt Q9NV35: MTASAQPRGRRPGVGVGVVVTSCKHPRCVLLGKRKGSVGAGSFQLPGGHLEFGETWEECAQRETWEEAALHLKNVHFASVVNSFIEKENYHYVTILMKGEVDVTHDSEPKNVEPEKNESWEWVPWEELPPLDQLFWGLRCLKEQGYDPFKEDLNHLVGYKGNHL
UniProt Q7Z3B4: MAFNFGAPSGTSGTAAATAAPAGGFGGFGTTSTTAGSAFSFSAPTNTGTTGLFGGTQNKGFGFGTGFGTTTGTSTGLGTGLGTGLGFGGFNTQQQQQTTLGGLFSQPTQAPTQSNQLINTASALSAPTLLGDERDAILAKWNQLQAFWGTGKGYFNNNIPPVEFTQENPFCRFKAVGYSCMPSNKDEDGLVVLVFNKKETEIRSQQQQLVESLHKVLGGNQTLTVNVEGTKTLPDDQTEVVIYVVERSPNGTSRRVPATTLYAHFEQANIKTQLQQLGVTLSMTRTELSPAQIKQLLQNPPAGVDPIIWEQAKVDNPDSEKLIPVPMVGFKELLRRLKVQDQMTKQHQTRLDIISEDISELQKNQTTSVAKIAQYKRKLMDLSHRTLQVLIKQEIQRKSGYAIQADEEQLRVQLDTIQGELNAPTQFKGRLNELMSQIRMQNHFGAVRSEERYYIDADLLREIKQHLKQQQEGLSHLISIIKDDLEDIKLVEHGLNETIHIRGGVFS
UniProt P20774: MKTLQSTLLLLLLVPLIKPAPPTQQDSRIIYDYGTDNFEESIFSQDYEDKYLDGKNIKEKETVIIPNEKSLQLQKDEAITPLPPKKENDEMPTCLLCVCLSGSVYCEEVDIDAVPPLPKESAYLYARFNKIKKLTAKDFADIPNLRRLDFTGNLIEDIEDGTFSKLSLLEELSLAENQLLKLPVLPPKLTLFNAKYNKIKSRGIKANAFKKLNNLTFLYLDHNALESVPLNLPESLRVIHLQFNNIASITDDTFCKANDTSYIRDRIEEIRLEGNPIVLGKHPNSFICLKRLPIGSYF
UniProt Q99567: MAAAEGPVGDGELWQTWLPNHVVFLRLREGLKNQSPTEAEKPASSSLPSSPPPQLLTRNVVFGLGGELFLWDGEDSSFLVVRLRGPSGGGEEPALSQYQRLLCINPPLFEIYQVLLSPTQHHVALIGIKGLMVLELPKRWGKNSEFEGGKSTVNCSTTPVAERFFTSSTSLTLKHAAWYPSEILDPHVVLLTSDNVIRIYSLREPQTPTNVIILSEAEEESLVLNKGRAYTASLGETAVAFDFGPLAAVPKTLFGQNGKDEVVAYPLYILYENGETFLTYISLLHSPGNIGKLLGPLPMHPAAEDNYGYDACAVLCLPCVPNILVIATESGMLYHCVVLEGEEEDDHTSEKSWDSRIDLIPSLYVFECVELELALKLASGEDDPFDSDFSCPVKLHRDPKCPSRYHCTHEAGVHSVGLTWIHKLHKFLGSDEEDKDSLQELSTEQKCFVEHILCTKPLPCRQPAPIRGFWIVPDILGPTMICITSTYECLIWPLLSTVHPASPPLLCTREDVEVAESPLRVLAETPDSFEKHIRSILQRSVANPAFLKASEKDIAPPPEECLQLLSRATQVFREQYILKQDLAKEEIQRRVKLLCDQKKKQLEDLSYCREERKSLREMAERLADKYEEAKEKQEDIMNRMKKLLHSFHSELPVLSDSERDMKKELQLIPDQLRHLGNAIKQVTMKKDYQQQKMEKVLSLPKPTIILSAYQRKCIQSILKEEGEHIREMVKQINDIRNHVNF

What was measured:
Assay in all cases: log2 fold change, soluble protein after heating vs DMSO (PISA); higher = thermal stabilisation; K562 cells, 10 uM, 30 min; active = over 0.2 and 3.5 SD of the protein, either way, in both replicates (recomputed)
IRAK-1-4 Inhibitor I = compound: C1COCCN1CCN2C3=CC=CC=C3N=C2NC(=O)C4=CC(=CC=C4)[N+](=O)[O-] [IRAK-1-4 Inhibitor I]
Method in brief: (§1)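 K562 cells at 2×10^6 cells/mL were treated for 30 min with 10 μM compound, and aliquots were heated for 3 min over 48°C-58°C before pooling. Extraction used PBS with 0.5% NP-40 at 4°C, and soluble protein was the supernatant after 21,000xg for 90 min, measured by TMTpro 16plex LC-MS/MS with channel sums equalised. Thermal stability values, relative to control samples and from duplicates, are log2 fold changes.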

ibrutinib = compound: C=CC(=O)N1CCC[C@@H](n2nc(-c3ccc(Oc4ccccc4)cc3)c3c(N)ncnc32)C1 [ibrutinib]
Method in brief: as §1

[1] = compound: CC(=O)c1cnc2ccc(-c3cc(Cl)c(O)c(Cl)c3)nc2c1N[C@H]1CC[C@H](CN(C)C)CC1
Method in brief: as §1

ralimetinib = compound: CC(C)(C)Cn1c(N)nc2ccc(-c3[nH]c(C(C)(C)C)nc3-c3ccc(F)cc3)nc21 [ralimetinib]
Method in brief: as §1

[2] = compound: CC(C)(O)CC(=O)NCCn1ccc2ncnc(Nc3ccc(Oc4cccc(C(F)(F)F)c4)c(Cl)c3)c21
Method in brief: as §1

[3] = compound: CC(C)C1=C2N=C(C=C(N2N=C1)NCC3=CC=CC=C3)NCCCCCCN
Method in brief: as §1

[4] = compound: CC(C)C[C@@H](C=O)NC(=O)[C@H](CC(C)C)NC(=O)[C@H](CC(C)C)NC(=O)OCc1ccccc1
Method in brief: as §1

pinometostat = compound: CC(C)N(C[C@H]1O[C@@H](n2cnc3c(N)ncnc32)[C@H](O)[C@@H]1O)[C@H]1C[C@@H](CCc2nc3cc(C(C)(C)C)ccc3[nH]2)C1 [pinometostat]
Method in brief: as §1

[5] = compound: CC1=C(C(CC(=O)N1)C2=CC=C(C=C2)C(F)(F)F)C(=O)NC3=C(C=C4C(=C3)C=NN4)F
Method in brief: as §1

[6] = compound: CC1=C(C2=C(C=C1)C(=O)C3=CC=CC=C3N2CCCN)C
Method in brief: as §1

[7] = compound: CC1=C(C=C(C=C1)NC(=O)C2=CC(=CC=C2)C(C)(C)C#N)NC3=CC4=C(C=C3)N=CN(C4=O)C
Method in brief: as §1

[8] = compound: CC1=C(C=C(C=C1)NC(=O)C2=CC(=CC=C2)N(C)C)NC(=O)C3=CC=C(C=C3)O
Method in brief: as §1

[9] = compound: CC1=CC=C(C=C1)SC2=C3C=C(SC3=CN=C2)C(=O)N
Method in brief: as §1

[10] = compound: CC1=NC(=CC=C1)C2=C(N=C(N2)C(C)(C)C)C3=CC4=NC=CN=C4C=C3
Method in brief: as §1

Nexturastat A = compound: CCCCN(Cc1ccc(C(=O)NO)cc1)C(=O)Nc1ccccc1 [Nexturastat A]
Method in brief: as §1

vemurafenib = compound: CCCS(=O)(=O)Nc1ccc(F)c(C(=O)c2c[nH]c3ncc(-c4ccc(Cl)cc4)cc23)c1F [vemurafenib]
Method in brief: as §1

[11] = compound: CCCS(=O)(=O)Nc1ccc(F)c(C(=O)c2c[nH]c3ncc(Cl)cc23)c1F
Method in brief: as §1

[12] = compound: CCCc1cc(C)[nH]c(=O)c1CNC(=O)c1cc(-c2ccnc(N3CCN(C)CC3)c2)cc2c1cnn2C(C)C
Method in brief: as §1

givinostat = compound: CCN(CC)Cc1ccc2cc(COC(=O)Nc3ccc(C(=O)NO)cc3)ccc2c1 [givinostat]
Method in brief: as §1

barasertib = compound: CCN(CCCOc1ccc2c(Nc3cc(CC(=O)Nc4cccc(F)c4)[nH]n3)ncnc2c1)CCOP(=O)(O)O [barasertib]
Method in brief: as §1

Measured: log2 fold change

OS9 (UniProt Q13438)
inactive: IRAK-1-4 Inhibitor I -0.053 | ibrutinib 0.006 | [1] 0.002 | ralimetinib 0.014 | [2] -0.005 | [3] -0.018 | [4] 0.099 | pinometostat 0.015 | [5] 0.019 | [6] -0.067 | [7] 0.015 | [8] -0.008 | [9] -0.006 | [10] -0.006 | Nexturastat A 0.019 | vemurafenib -0.069 | [11] -0.001 | [12] -0.048 | givinostat 0.041 | barasertib -0.009

OTC (UniProt P00480)
inactive: IRAK-1-4 Inhibitor I -0.032 | ibrutinib -0.052 | [1] -0.166 | ralimetinib -0.364 | [2] 0.017 | [3] -0.142 | [4] 0.117 | pinometostat -0.016 | [5] 0.011 | [6] 0.063 | [7] -0.092 | [8] -0.006 | [9] -0.229 | [10] -0.09 | Nexturastat A -0.054 | vemurafenib -0.257 | [11] -0.344 | [12] -1.78 | givinostat -0.032 | barasertib 0.058

OXCT1 (UniProt P55809)
inactive: IRAK-1-4 Inhibitor I 0.023 | ibrutinib -0.008 | [1] -0.004 | ralimetinib -0.006 | [2] -0.006 | [3] 0.016 | [4] -0.009 | pinometostat -0.021 | [5] -0.022 | [6] -0.003 | [7] 0.06 | [8] -0.001 | [9] -0.007 | [10] 0.015 | Nexturastat A -0.078 | vemurafenib 0.038 | [11] 0.004 | [12] 0.006 | givinostat 0.019 | barasertib -0.001

NUDT9 (UniProt Q9BW91)
inactive: IRAK-1-4 Inhibitor I 0.027 | ibrutinib -0.037 | [1] -0.032 | ralimetinib -0.021 | [2] 0 | [3] -0.002 | [4] 0.054 | pinometostat -0.043 | [5] -0.021 | [6] -0.018 | [7] -0.012 | [8] -0.074 | [9] 0.006 | [10] 0.046 | Nexturastat A -0.07 | vemurafenib 0.056 | [11] 0.021 | [12] -0.008 | givinostat -0.094 | barasertib 0.029

OMA1 (UniProt Q96E52)
inactive: IRAK-1-4 Inhibitor I 0.002 | ibrutinib -0.037 | [1] 0.017 | ralimetinib 0.01 | [2] 0.006 | [3] -0.023 | [4] -0.169 | pinometostat -0.02 | [5] 0.094 | [6] -0.007 | [7] -0.017 | [8] -0.023 | [9] 0.016 | [10] -0.018 | Nexturastat A -0.059 | vemurafenib 0.014 | [11] -0.001 | [12] -0.039 | givinostat 0.013 | barasertib -0.013

Copied from the listing (three entries):
OS9 (UniProt Q13438)
inactive: IRAK-1-4 Inhibitor I -0.053 | ibrutinib 0.006 | [1] 0.002 | ralimetinib 0.014 | [2] -0.005 | [3] -0.018 | [4] 0.099 | pinometostat 0.015 | [5] 0.019 | [6] -0.067 | [7] 0.015 | [8] -0.008 | [9] -0.006 | [10] -0.006 | Nexturastat A 0.019 | vemurafenib -0.069 | [11] -0.001 | [12] -0.048 | givinostat 0.041 | barasertib -0.009

OTC (UniProt P00480)
inactive: IRAK-1-4 Inhibitor I -0.032 | ibrutinib -0.052 | [1] -0.166 | ralimetinib -0.364 | [2] 0.017 | [3] -0.142 | [4] 0.117 | pinometostat -0.016 | [5] 0.011 | [6] 0.063 | [7] -0.092 | [8] -0.006 | [9] -0.229 | [10] -0.09 | Nexturastat A -0.054 | vemurafenib -0.257 | [11] -0.344 | [12] -1.78 | givinostat -0.032 | barasertib 0.058

OXCT1 (UniProt P55809)
inactive: IRAK-1-4 Inhibitor I 0.023 | ibrutinib -0.008 | [1] -0.004 | ralimetinib -0.006 | [2] -0.006 | [3] 0.016 | [4] -0.009 | pinometostat -0.021 | [5] -0.022 | [6] -0.003 | [7] 0.06 | [8] -0.001 | [9] -0.007 | [10] 0.015 | Nexturastat A -0.078 | vemurafenib 0.038 | [11] 0.004 | [12] 0.006 | givinostat 0.019 | barasertib -0.001

The listing continues:

OTUD5 isoform 5 (UniProt Q96G74)
inactive: IRAK-1-4 Inhibitor I 0.054 | ibrutinib 0 | [1] -0.137 | ralimetinib 0.004 | [2] 0.011 | [3] 0.014 | [4] 0 | pinometostat 0.031 | [5] 0.018 | [6] -0.063 | [7] -0.076 | [8] -0.051 | [9] 0.043 | [10] -0.022 | Nexturastat A 0.026 | vemurafenib 0.026 | [11] 0.052 | [12] -0.062 | givinostat 0.052 | barasertib 0.038

OTUB1 (UniProt Q96FW1)
inactive: IRAK-1-4 Inhibitor I 0.009 | ibrutinib -0.011 | [1] -0.024 | ralimetinib 0.018 | [2] -0.07 | [3] -0.051 | [4] -0.04 | pinometostat -0.016 | [5] -0.007 | [6] -0.004 | [7] -0.018 | [8] -0.016 | [9] 0.03 | [10] 0.049 | Nexturastat A -0.089 | vemurafenib 0.031 | [11] 0.051 | [12] -0.028 | givinostat 0.019 | barasertib -0.017

NT5C2 (UniProt P49902)
inactive: IRAK-1-4 Inhibitor I 0.012 | ibrutinib -0.003 | [1] 0.007 | ralimetinib -0.061 | [2] 0.007 | [3] 0.083 | [4] -0.042 | pinometostat -0.066 | [5] -0.051 | [6] 0.061 | [7] -0.025 | [8] -0.002 | [9] 0.01 | [10] -0.028 | Nexturastat A -0.026 | vemurafenib -0.031 | [11] -0.016 | [12] 0.02 | givinostat -0.018 | barasertib -0.008

NUP188 (UniProt Q5SRE5)
inactive: IRAK-1-4 Inhibitor I -0.059 | ibrutinib -0.03 | [1] -0.071 | ralimetinib 0.019 | [2] -0.064 | [3] -0.14 | [4] 0.034 | pinometostat 0.005 | [5] -0.001 | [6] 0.023 | [7] 0.006 | [8] -0.021 | [9] 0.031 | [10] -0.028 | Nexturastat A 0.038 | vemurafenib 0.053 | [11] 0.059 | [12] 0.005 | givinostat 0.012 | barasertib 0.185

NUDT12 (UniProt Q9BQG2)
inactive: IRAK-1-4 Inhibitor I 0.032 | ibrutinib 0.026 | [1] 0.071 | ralimetinib 0.03 | [2] -0.042 | [3] 0.03 | [4] -0.028 | pinometostat -0.049 | [5] -0.039 | [6] 0.065 | [7] -0.026 | [8] -0.062 | [9] 0.003 | [10] 0.019 | Nexturastat A -0.039 | vemurafenib 0.062 | [11] 0.015 | [12] 0.011 | givinostat -0.005 | barasertib 0.026

NUBP1 (UniProt P53384)
inactive: IRAK-1-4 Inhibitor I 0.098 | ibrutinib -0.046 | [1] -0.067 | ralimetinib -0.118 | [2] -0.094 | [3] -0.057 | [4] -0.051 | pinometostat -0.068 | [5] 0.005 | [6] 0.015 | [7] -0.047 | [8] -0.017 | [9] 0.032 | [10] 0.011 | Nexturastat A -0.221 | vemurafenib 0.051 | [11] 0.007 | [12] 0.01 | givinostat 0.019 | barasertib 0.007

NUDT15 (UniProt Q9NV35)
inactive: IRAK-1-4 Inhibitor I 0.016 | ibrutinib -0.001 | [1] -0.012 | ralimetinib 0.024 | [2] -0.026 | [3] 0.018 | [4] -0.018 | pinometostat 0.008 | [5] -0.021 | [6] 0.036 | [7] 0.025 | [8] -0.03 | [9] 0.004 | [10] -0.057 | Nexturastat A -0.034 | vemurafenib 0.099 | [11] 0.072 | [12] -0.227 | givinostat 0.013 | barasertib -0.002

NUP54 (UniProt Q7Z3B4)
inactive: IRAK-1-4 Inhibitor I 0 | ibrutinib -0.095 | [1] -0.064 | ralimetinib -0.01 | [2] -0.094 | [3] -0.122 | [4] 0.006 | pinometostat -0.04 | [5] -0.017 | [6] 0.08 | [7] -0.032 | [8] 0.044 | [9] 0.028 | [10] 0.104 | Nexturastat A 0 | vemurafenib 0.024 | [11] 0.061 | [12] 0.024 | givinostat 0.047 | barasertib 0.072

NT5C (UniProt Q8TCD5)
inactive: IRAK-1-4 Inhibitor I 0.035 | ibrutinib 0.034 | [1] 0.021 | ralimetinib -0.052 | [2] 0.031 | [3] 0.045 | [4] -0.013 | pinometostat -0.027 | [5] 0.03 | [6] 0.011 | [7] -0.027 | [8] 0.025 | [9] -0.019 | [10] -0.02 | Nexturastat A -0.05 | vemurafenib -0.003 | [11] -0.024 | [12] -0.042 | givinostat -0.11 | barasertib -0.011

OGN (UniProt P20774)
inactive: IRAK-1-4 Inhibitor I -0.007 | ibrutinib 0.225 | [1] 0.014 | ralimetinib -0.13 | [2] 0.26 | [3] 0 | [4] 0.146 | pinometostat -0.031 | [5] -0.133 | [6] 0.019 | [7] 0.028 | [8] -0.031 | [9] 0.043 | [10] 0.037 | Nexturastat A -0.109 | vemurafenib 0.145 | [11] -0.027 | [12] 0.032 | givinostat -0.109 | barasertib 0.06

NUP88 (UniProt Q99567)
inactive: IRAK-1-4 Inhibitor I -0.013 | ibrutinib -0.089 | [1] -0.004 | ralimetinib 0.087 | [2] -0.031 | [3] -0.117 | [4] 0.013 | pinometostat 0.16 | [5] 0.03 | [6] 0.028 | [7] -0.056 | [8] -0.027 | [9] 0.015 | [10] -0.043 | Nexturastat A 0.136 | vemurafenib 0.022 | [11] 0.071 | [12] 0.033 | givinostat 0.092 | barasertib 0.012
